Data source: PubChem BioAssay AID1053208 (Peter MacCallum Cancer Centre, 2014)
Test: 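Find knock-downs that sensitise mouse osteosarcoma cells to doxorubicin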 (primary screen). System: mouse osteosarcoma cells, early-passage culture from an engineered mouse model of fibroblastic bone tumour. Reagent: siRNA pool against mouse genes, 40 nM. Timing: about 120 h (48 h before drug, then 72 h with drug). Treatment: doxorubicin 100 nM for 72 h, roughly 30-40% inhibitory dose. Read-out: 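Viability read as ATP luminescence after 72 h of 100 nM doxorubicin or none, duplicate wells averaged, scaled to non-targeting siRNA, then expressed as robust z-scores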. Direction: viability z-score with doxorubicin and doxorubicin viability vs non-targeting: higher = more viable cells under doxorubicin; viability z-score without drug: higher = more viable cells with knock-down alone; z-score of drug to no-drug ratio: higher = less drug sensitisation by knock-down. Rule for the call: 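a pool counts as active when its viability z-score with doxorubicin is -2 or below and its z-score without drug lies between -2 and 2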.
In all, the deposit lists about 17,000 reagents; shown is an unselected part. 788 of them (4.7%) count as active. 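Calls rest on z-score classes alone; an extra cut-off of viability at most 70% of control was not applied to them.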 No sequences are given here.

Target gene,PubChem SID,combined z-score class,viability z-score with doxorubicin,viability z-score without drug,z-score of drug to no-drug ratio,doxorubicin viability vs non-targeting,Call
Col4a6 (GeneID 94216),SID152259376,no change with or without drug,1.57,1.69,0.56,1.08,inactive
Ggcx (GeneID 56316),SID152297584,no change with or without drug,-0.67,-0.67,-0.11,0.88,inactive
Foxj3 (GeneID 230700),SID152283090,no change with or without drug,0,-0.17,0.22,0.94,inactive
Phlpp1 (GeneID 98432),SID152296162,no change with or without drug,0.11,-0.17,0.34,0.95,inactive
Dpysl5 (GeneID 65254),SID152327350,no change with or without drug,-0.45,0.51,-0.67,0.9,inactive
Zbtb17 (GeneID 22642),SID152326902,no change with or without drug,0,0.51,-0.22,0.94,inactive
Tgfbr3 (GeneID 21814),SID152296044,no change with or without drug,0,0.84,-0.45,0.94,inactive
Arhgef26 (GeneID 622434),SID152333033,no change with or without drug,-1.35,-1.18,-0.56,0.82,inactive
Riox1 (GeneID 71952),SID152317424,low cell count without drug only,1.01,-3.88,5.06,1.03,inactive
Trim12c (GeneID 319236),SID152286380,no change with or without drug,0.45,0.67,0.11,0.98,inactive
Txlnb (GeneID 378431),SID152269788,no change with or without drug,1.91,0.51,1.69,1.11,inactive
Adck5 (GeneID 268822),SID152290982,no change with or without drug,-0.34,1.69,-1.24,0.91,inactive
Pglyrp2 (GeneID 57757),SID152313217,no change with or without drug,-1.8,-1.85,-0.56,0.78,inactive
Serpina3c (GeneID 16625),SID152307905,no change with or without drug,0.34,0.51,0.11,0.97,inactive
Ola1 (GeneID 67059),SID152339451,no change with or without drug,1.57,0.84,1.12,1.08,inactive
Cdh16 (GeneID 12556),SID152326164,no change with or without drug,0.22,-0.51,0.67,0.96,inactive
Map4k2 (GeneID 26412),SID152282830,low cell count without drug only,-1.12,-2.02,0.34,0.84,inactive
Col9a3 (GeneID 12841),SID152279662,no change with or without drug,0.9,0.17,0.9,1.02,inactive
Ccnb1 (GeneID 268697),SID152339880,no change with or without drug,-0.79,0.17,-0.79,0.87,inactive
Krt8 (GeneID 16691),SID152301959,no change with or without drug,-0.22,0.34,-0.34,0.92,inactive
Pms2 (GeneID 18861),SID152300451,no change with or without drug,1.35,0.67,1.01,1.06,inactive
Arnt2 (GeneID 11864),SID152295236,no change with or without drug,0.22,1.52,-0.67,0.96,inactive
Wdr55 (GeneID 67936),SID152310317,no change with or without drug,1.12,0.84,0.67,1.04,inactive
Ifnk (GeneID 387510),SID152317391,no change with or without drug,0.22,-0.17,0.45,0.96,inactive
Tex16 (GeneID 83556),SID152337159,no change with or without drug,1.57,0,1.8,1.08,inactive
Or1e25 (GeneID 193053),SID152334549,no change with or without drug,0,-0.51,0.45,0.94,inactive
Prl4a1 (GeneID 19110),SID152339544,high cell count without drug only,0.56,2.19,-0.67,0.99,inactive
Heg1 (GeneID 77446),SID152261447,no change with or without drug,1.35,0.17,1.35,1.06,inactive
Heg1 (GeneID 77446),SID152326697,no change with or without drug,0.45,0.51,0.22,0.98,inactive
Rgs9bp (GeneID 243923),SID152337523,no change with or without drug,1.69,0.67,1.35,1.09,inactive
Mmp15 (GeneID 17388),SID152282308,no change with or without drug,-0.9,-0.17,-0.79,0.86,inactive
Usp14 (GeneID 59025),SID152292645,no change with or without drug,-0.22,0.34,-0.34,0.92,inactive
Ooep (GeneID 67968),SID152287269,no change with or without drug,0.22,0.51,0,0.96,inactive
Serpinb9d (GeneID 20726),SID152268287,no change with or without drug,-0.34,-0.17,-0.11,0.91,inactive
Foxe3 (GeneID 30923),SID152308707,no change with or without drug,0.22,1.85,-0.79,0.96,inactive
Amz2 (GeneID 13929),SID152314133,no change with or without drug,0.11,0,0.22,0.95,inactive
Trpt1 (GeneID 107328),SID152307143,no change with or without drug,1.12,1.01,0.56,1.04,inactive
Tcf19 (GeneID 106795),SID152298484,no change with or without drug,0.34,1.52,-0.56,0.97,inactive
Dnali1 (GeneID 75563),SID152273315,high cell count without drug only,0.22,2.02,-0.9,0.96,inactive
Zfp598 (GeneID 213753),SID152262684,high cell count with doxorubicin only,2.25,1.52,1.35,1.14,inactive
Fanci (GeneID 208836),SID152305647,no change with or without drug,-0.67,0.84,-1.12,0.88,inactive
Dus4l (GeneID 71916),SID152290418,no change with or without drug,-0.79,1.18,-1.46,0.87,inactive
Dennd1a (GeneID 227801),SID152299054,no change with or without drug,-0.22,0.34,-0.34,0.92,inactive
Vmn1r74 (GeneID 171240),SID152271121,no change with or without drug,1.12,0.17,1.12,1.04,inactive
Slc25a10 (GeneID 27376),SID152320041,no change with or without drug,-0.45,0.67,-0.79,0.9,inactive
Pdrg1 (GeneID 68559),SID152311661,no change with or without drug,-0.9,0.17,-0.9,0.86,inactive
Palmd (GeneID 114301),SID152299410,no change with or without drug,-1.12,0.84,-1.57,0.84,inactive
Ppil1 (GeneID 68816),SID152274358,no change with or without drug,0.11,-0.51,0.56,0.95,inactive
Socs7 (GeneID 192157),SID152306514,no change with or without drug,0.11,0.17,0.11,0.95,inactive
Chrdl1 (GeneID 83453),SID152323562,no change with or without drug,-0.67,-0.34,-0.34,0.88,inactive

7 entries already listed, sorted by “viability z-score without drug”, descending.
Target gene,PubChem SID,combined z-score class,viability z-score with doxorubicin,viability z-score without drug,z-score of drug to no-drug ratio,doxorubicin viability vs non-targeting,Call
Prl4a1 (GeneID 19110),SID152339544,high cell count without drug only,0.56,2.19,-0.67,0.99,inactive
Arnt2 (GeneID 11864),SID152295236,no change with or without drug,0.22,1.52,-0.67,0.96,inactive
Wdr55 (GeneID 67936),SID152310317,no change with or without drug,1.12,0.84,0.67,1.04,inactive
Heg1 (GeneID 77446),SID152261447,no change with or without drug,1.35,0.17,1.35,1.06,inactive
Tex16 (GeneID 83556),SID152337159,no change with or without drug,1.57,0,1.8,1.08,inactive
Ifnk (GeneID 387510),SID152317391,no change with or without drug,0.22,-0.17,0.45,0.96,inactive
Or1e25 (GeneID 193053),SID152334549,no change with or without drug,0,-0.51,0.45,0.94,inactive
